The assay concerns the target USP37^wt (isolated catalytic domain of USP37 from Danio rerio, residues 312–927) (Danio rerio) (UniProt E7F6T8). Put plainly: SEC; 1 mL of ~2 mg/mL USP37^wt on Superdex S200 in 25 mM HEPES pH 8, 150 mM NaCl, 5 mM DTT; effective molecular weight from protein standards; both purified.

No constants are given. Whether binding was seen depends on the method and setting.

B1: USP37^wt (isolated catalytic domain of USP37 from Danio rerio, residues 312–927) (enzyme, UniProt E7F6T8 312-927)
chain: SVLAQPQPPLQGFSNLGNTCYMNAILQSLFSLPSFSNDLLKQGIPWKRVPINALLRRFAHLLAKKDISPPEVKKDLLRRVKNAISSTAERFSGYMQNDAHEFLSQCLDQLKEDVEKINKSWKNEPSAWDEPQSTRLADEVDTSRIYTCPVTVNMEFEVQHTITCKSCGEVVLKREQFNDLSIDLPRRRKTLPMRSIQDSLDLFFRMEEIEYSCEKCSGKAATVSHKFSRLPRVLILHLKRYSYNTQLSLNSKLGQQVLIPKYLTLLSHCTDATRSPLSLGWSAQNALSRTLKISQSVNSSTLRRASQRPESSGSVLCDSDSDEELVRKVARKHHPDDDRADELQQHHPHAAVEQSEFNGINDEEMLAAVLEMSRHDTSLCAGPDEEPSSSPDTGFGDADAHDLTQHLELLDAEKQPTDALESLDLTMDENKENQTPDGLQGELDWVQQYSLEQEREEQELQQALAQSLQEQEAREMREDDDLKRATELSLQEFNNSLPELLCSDEDSGNEDGLDMEYSEAEAEELKKNAETGELPNSFRLISVVSHIGSSSSSGHYISDVYDMKKQSWLTYNDLDVSRTQESTVQRDRDRSGYIFFYMHKDVFEELSELEKAGVNT
As to B1, the binding entry is on record as “no binding (tested: 1 mL of ~2 mg/mL injected)”.

Source of the values: publication PMC6412040.
